Data reported in PMC7162874.
No constants are given. Whether binding was seen depends on the method and setting. In cells and extracts the contact can be indirect. Here binding means that the protein was enriched with, or labelled near, the bait; the list need not be complete. Sequences can lack the tags named with a protein.

Chains of the proteins cited; added tags and fusions are not shown.
UniProt Q99459: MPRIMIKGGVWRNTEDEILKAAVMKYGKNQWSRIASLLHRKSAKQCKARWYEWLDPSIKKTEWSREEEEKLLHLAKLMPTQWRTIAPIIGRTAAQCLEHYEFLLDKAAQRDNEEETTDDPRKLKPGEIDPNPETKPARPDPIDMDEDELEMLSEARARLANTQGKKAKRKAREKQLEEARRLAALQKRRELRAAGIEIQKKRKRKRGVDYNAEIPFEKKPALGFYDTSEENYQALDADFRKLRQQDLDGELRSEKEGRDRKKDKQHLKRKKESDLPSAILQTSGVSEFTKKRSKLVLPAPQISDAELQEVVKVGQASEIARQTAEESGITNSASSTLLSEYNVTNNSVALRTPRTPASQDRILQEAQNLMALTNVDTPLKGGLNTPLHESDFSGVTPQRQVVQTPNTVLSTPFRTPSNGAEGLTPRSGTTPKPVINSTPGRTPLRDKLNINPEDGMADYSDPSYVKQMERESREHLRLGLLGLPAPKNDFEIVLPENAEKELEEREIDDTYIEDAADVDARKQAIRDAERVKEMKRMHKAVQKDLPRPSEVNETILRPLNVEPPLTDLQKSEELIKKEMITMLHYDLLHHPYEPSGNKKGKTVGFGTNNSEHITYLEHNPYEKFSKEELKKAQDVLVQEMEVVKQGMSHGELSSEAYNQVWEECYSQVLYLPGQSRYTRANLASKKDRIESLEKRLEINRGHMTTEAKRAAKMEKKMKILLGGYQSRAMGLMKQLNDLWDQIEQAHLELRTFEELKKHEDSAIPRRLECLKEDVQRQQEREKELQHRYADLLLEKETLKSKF
UniProt O14641: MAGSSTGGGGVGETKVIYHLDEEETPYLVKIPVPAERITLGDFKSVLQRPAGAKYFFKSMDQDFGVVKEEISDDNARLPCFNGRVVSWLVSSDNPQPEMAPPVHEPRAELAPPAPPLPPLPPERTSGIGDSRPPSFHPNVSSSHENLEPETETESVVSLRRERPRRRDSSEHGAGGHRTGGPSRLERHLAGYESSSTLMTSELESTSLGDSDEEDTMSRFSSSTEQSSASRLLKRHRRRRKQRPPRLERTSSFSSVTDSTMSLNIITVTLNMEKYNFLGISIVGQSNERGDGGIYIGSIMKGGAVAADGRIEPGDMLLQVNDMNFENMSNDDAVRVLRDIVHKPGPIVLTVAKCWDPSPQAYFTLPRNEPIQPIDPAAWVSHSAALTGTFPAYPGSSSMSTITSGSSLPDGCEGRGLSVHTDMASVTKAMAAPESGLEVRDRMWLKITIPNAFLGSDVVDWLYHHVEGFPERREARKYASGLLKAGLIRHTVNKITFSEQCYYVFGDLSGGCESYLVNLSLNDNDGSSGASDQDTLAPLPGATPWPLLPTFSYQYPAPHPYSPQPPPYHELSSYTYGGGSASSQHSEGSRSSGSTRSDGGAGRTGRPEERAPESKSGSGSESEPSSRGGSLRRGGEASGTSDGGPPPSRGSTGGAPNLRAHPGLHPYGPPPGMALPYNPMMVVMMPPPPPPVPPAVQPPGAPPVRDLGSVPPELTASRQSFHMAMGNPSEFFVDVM

T1: WW domain-containing oxidoreductase (WWOX), wild type, stably overexpressed in MDA-MB435S cells (UniProt Q9NZC7)
T1 sequence: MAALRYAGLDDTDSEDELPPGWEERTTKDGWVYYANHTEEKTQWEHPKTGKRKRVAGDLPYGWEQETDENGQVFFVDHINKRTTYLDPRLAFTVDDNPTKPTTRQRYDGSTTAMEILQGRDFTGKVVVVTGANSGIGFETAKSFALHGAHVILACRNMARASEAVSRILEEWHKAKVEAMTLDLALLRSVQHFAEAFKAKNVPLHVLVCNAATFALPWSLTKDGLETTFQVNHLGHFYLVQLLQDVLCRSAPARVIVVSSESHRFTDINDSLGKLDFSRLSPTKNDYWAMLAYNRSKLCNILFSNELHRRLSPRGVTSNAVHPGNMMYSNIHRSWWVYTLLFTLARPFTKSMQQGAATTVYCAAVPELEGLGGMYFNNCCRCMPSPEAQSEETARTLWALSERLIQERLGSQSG

B1: MYCBP, c-Myc binding protein, endogenous in MDA-MB435S cells (protein, UniProt Q99417 1-103)
chain: MAHYKAADSKREQFRRYLEKSGVLDTLTKVLVALYEEPEKPNSALDFLKHHLGAATPENPEIELLRLELAEMKEKYEAIVEENKKLKAKLAQYEPPQEEKRAE
B2: SCAMP3 (secretory carrier membrane protein family), endogenous in MDA-MB435S cells (protein, UniProt O14828 1-347)
chain: MAQSRDGGNPFAEPSELDNPFQDPAVIQHRPSRQYATLDVYNPFETREPPPAYEPPAPAPLPPPSAPSLQPSRKLSPTEPKNYGSYSTQASAAAATAELLKKQEELNRKAEELDRRERELQHAALGGTATRQNNWPPLPSFCPVQPCFFQDISMEIPQEFQKTVSTMYYLWMCSTLALLLNFLACLASFCVETNNGAGFGLSILWVLLFTPCSFVCWYRPMYKAFRSDSSFNFFVFFFIFFVQDVLFVLQAIGIPGWGFSGWISALVVPKGNTAVSVLMLLVALLFTGIAVLGIVMLKRIHSLYRRTGASFQKAQQEFAAGVFSNPAVRTAAANAAAGAAENAFRAP

Molecular target: T1, WW domain-containing oxidoreductase (WWOX), wild type, stably overexpressed in MDA-MB435S cells
Assay: affinity purification with mass spectrometry; IP with a cocktail of mouse anti-WWOX monoclonal antibodies and protein A/G plus agarose from whole cell extracts of MDA-MB435S cells (EV, WWOX or WFPA overexpressing), overnight at 4 °C; lysis buffer with NaCl, Tris, glycerol, NP-40 1%, pH 7.4; on-bead trypsin elution, Q Exactive; three biological replicates

binding, binds:
CDC5L, cell division cycle 5-like, endogenous in MDA-MB435S cells (from UniProt Q99459 1-802)
DVL2 (Disheveled 2), endogenous in MDA-MB435S cells (from UniProt O14641 1-736)
B1
B2
